The text below walks through data of PMC12370185.

This is one part of the list. At the low end of the ranking the order means little.

One assay deals with OCT4 + histone octamer. Briefly: Pioneer-seq (competitive nucleosome EMSA with sequencing). The settings on record: 10 mM Tris-Cl pH 7.5, 50 mM NaCl, 1 mM DTT, 0.25 mg/ml BSA, 2 mM MgCl2, 0.025% Nonidet P-40, 5% glycerol; 28 nM nucleosome library; 10 min on ice then 30 min …; high values mean tight binding; double strand, one strand shown.
Consider “GATGGACCCTATACGCGGCTGGTTCTCTCACCCCAGACACACCAGGGCTGATCCAACATATCTGGCTCAACATCACCCACAAGTCTCAACAGGGCCCTGAAAACCACCTCTGACTCCACAACCCACTGTCCCACGCCCTGGGAGGTAGGCTGTGTCTGGGCTTGCTCACGTCTGGGAACAGCAAAGTCTGGCCCAAGCCTGTTCAGCCTGTGCCAGTCGGATAGTGTTCC”, for which the binding signal (log2 relative supershift) was -0.681.

Turning to “GATGGACCCTATACGCGGCTTAATTCCTCCACTCTTGCAAGTGTACTTAATAGCTCACACAAAGCAAGAAGCATAACCGCAAGAACACAGAGAAGCCTGCCCTGCCAGGTTTATTGTGTGCCTGGCTGCGTGATTATTGTTTTGCATATAACCTCACAGAGGAAATCCTGTGTCAGGCACTTCCAGAGCCTCATGTAGTTTTACTGGATGTGCCAGTCGGATAGTGTTCC”, the binding signal (log2 relative supershift) is -0.329.

Consider “GATGGACCCTATACGCGGCTCATGGAATCCTTCATTAGCTCCATTTCTTAGCAGAAAAGGTTGTGCAGCATATGCCATATCATACTGGATATGCCCCATCTCATGATGAGCTGTCAGGAAGTCGTCCATTGTCACCTTTGTGCACATAAGGATCCTGCATGAAAATGGACAAGATGAAAATGAATCTCACTGACTTTCATTTAACCATTATGCCAGTCGGATAGTGTTCC”, for which the binding signal (log2 relative supershift) is -0.0276.

Consider “GATGGACCCTATACGCGGCACACAAACTCTTTCCCCCTTGTCCGTTTGCAGGCTCTCTCATCTGGCACCTATAGTGACACCTGCTCCTTTGAGTGGCCCCTTGCCCAGGACACAGCTGTGTTCCTTCATGGCATCATTTGTGTGCTGGCTCAGGCCAGCCTATGGTCCCTGCTCCCCAAGCCTCTCACTGAAGAGAAAGGCACTGAAAGGTGCCAGTCGGATAGTGTTCC”, for which the binding signal (log2 relative supershift) is -0.626.

Consider “GATGGACCCTATACGCGGCTTTTAAAAATCAATGGCTGATAATACTGTTATCTGTGGTTATACAGCTGATACCAGCATTAAGGACCAAGGTGTCTGTACTAGTGTTTGTATTGCAGGAGGTGGAGAGCGAACAATACCATGAAAAGCAACAAGTTCCTGTGTGCTGCTATATTTGGATAAGAGAGGAAGAATGAGATGGAGGGACTTGTTTGCCAGTCGGATAGTGTTCC”, for which the binding signal (log2 relative supershift) was -0.404.

The test system of another assay is SOX2 + histone octamer. The assay is described as above. The conditions noted are these: 10 mM Tris-Cl pH 7.5, 50 mM NaCl, 1 mM DTT, 0.25 mg/ml BSA, 2 mM MgCl2, 0.025% Nonidet P-40, 5% glycerol; 28 nM nucleosome library; 10 min on ice then 30 min …; high values mean tight binding; double strand, one strand shown.
Consider “GATGGACCCTATACGCGGCCAATAAGGGTGGTCTGGTGCCTTGCTCCAAAAGGCCTTATCAGTAGACCTGAGACGATGGGCTGGGTTGTCTTCATTAACCTCTGAAAGCATGCCTGGGGAAGAAGGGACCAGCCTGGGCTCCGAAGGCCTCCTCAGAACAAGACCCTGCTTGTCCAAGTGCCTCACTCCCGGGTGGCTTGATTTCCAGGATGCCAGTCGGATAGTGTTCC”, for which the binding signal (log2 relative supershift) was -0.26.

For the sequence “GATGGACCCTATACGCGGCTTCTCTTTCTCCCTGCCTCCACCAGCCCAGACCCCACCCCACCTCCTGTAAACCAGGGGCAGCAGGGGAGGGACGCTTTGCAGAGCAGTGCAAGTACAGACAAGTGCGTCGCTGAATCTGTGATCAGTGCTGGGGGCCCCTCAGGGCTGCCTGTACCTGGGTGGGGTGGGACATCACCAGCCCATAGCCCATGCCAGTCGGATAGTGTTCC”, the binding signal (log2 relative supershift) was -0.699.

As for “GATGGACCCTATACGCGGCTGAAATTTTCCAGAGTTGCTCGGGGATGTCACTCGAATGGAACATTTGGGAGACTGCCAAGACCCATTTGTCAGCATGTACAGGCCTGCCCTGAGAGACCACAAATGATGGGAACTCTTGAAAGGTCTAGGGCAGTAGCCTCCAAGATAGGTCACTCCTATTCCCTGGATTCACAGCCAGCAAGAGCAGTATGCCAGTCGGATAGTGTTCC”, the binding signal (log2 relative supershift) is -0.214.

In the case of “GATGGACCCTATACGCGGCCCCCAGACCAAGGGCCAACAGGCCCCAGCCTGTACCTCTCAGCTGGGTCCCAGTGAACTTGGGCCTCCAAGGGGCCTTCCCCAGGCACCAGGGGAGGGCAGAGGGCAGGGCTGGGCCTGGACTTGCAGGATGCTCAACAGAGTTTGCCCTACCTAATTCCCACACCCCTCCTCTTGTACTCTTTCCCATCTTGCCAGTCGGATAGTGTTCC”, the binding signal (log2 relative supershift) is -0.229.

Take “GATGGACCCTATACGCGGCAGAGAGCCCAAGACTAGAAATGCCCATATCTTCCCATGGAAAGTGTTCCTCTGATAGGCGGGAGACAGAGGACCAAATTGCAAGTTACAACCTGCAGCCTGGGAGTTTCAGGGGCTTCAACACCAAATGAAATTGGAGAACTATCAACAGGATTCAGGGTTCAGCACAGGCTCCAGCAAGACAGAGAGAAATGCCAGTCGGATAGTGTTCC”: the binding signal (log2 relative supershift) is -0.153.

As to “GATGGACCCTATACGCGGCGAGGAAGAGTCCCAGGGTGATGAGGGTGAGGGTGTGTTCCCTCCCACAATTAATGCCATCACAGTGAGATCTGCCTAATAATAGGATCTCCAGACCCCAGCAAATTGTCTGCTGATCTCAGGCAATGTTTGTCTGTAAGAATCCTTCGCCCTGTGTAAACATTTTATTAGACCATTAAGTTGCCGTCAGCCTGCCAGTCGGATAGTGTTCC”, the binding signal (log2 relative supershift) is -0.0494.

On to “GATGGACCCTATACGCGGCGGGTCCCCAGAGAATCTCCAGGCACACAAGTGTCTACCACAGATAAAACATCTGGTGCAGATAAGGGAACCTGCACAGGGGCTTGCCTGGACATGCCAGCAGCAGACTGGAGGCCCACATGCACTGGGGAGCTGGGGTGGAGCCACCAAGAATTCATGCCTTATGCAGAGGAGGAGCCTGGCCTCTTCAGCTGCCAGTCGGATAGTGTTCC”, for which the binding signal (log2 relative supershift) was -0.665.

Regarding “GATGGACCCTATACGCGGCCGTGCCTGGAGCTTGGAATTCAGGCCAGAAACCACCAGTGGACACCAGCATTCCACACTCACTGCACAGGCTGGGGCTCAAACCAAGGCCCAGGGACAGGAAGGGACAAGCCCCAGCCCCAGCCGGACTCCCAGCCCACACAAACCATCAGGGCTTGTTTCCTGCTCCATGGAAGCCTCAGACATGTTTCATGCCAGTCGGATAGTGTTCC”, the binding signal (log2 relative supershift) was -0.695.

With “GATGGACCCTATACGCGGCAGGGAGGTGTTTGGGGTTTGGACAGCTGCTCCCTCCTTTAGGGCTGACTGTCCCATCAGGAGGGGGTTGTTTCTGTTGCTCAGTGGGGAATCTGCAGGCCTCGACAGGCTCTGAGCTGGGAAACAGGAGTGGCCCTGCCTGTCCTATGACACACTGTGAGTGGAGGGGGCTGTGGCCGGCAGGGACGTAGGTGCCAGTCGGATAGTGTTCC”, the binding signal (log2 relative supershift) was -0.629.

For “GATGGACCCTATACGCGGCATCAAGGGAAGCAGCCCACTGTGGGCACACTCAGAAAGTATGAGTGAGGGGAGGAGGTGTAGCATGGGGAGAAGAGGCCTGGGGTAGCCCCTGGACAGAAGCCCGCTCCTTTCTGCTCTCTGAGGTGTCCACTGATTCAGCCTGTTGGCCTGGCCAGAACCTGCCCTCTTCATGCCTCGGTTTCCCTGGCTTGCCAGTCGGATAGTGTTCC”, the binding signal (log2 relative supershift) is -0.65.

Regarding “GATGGACCCTATACGCGGCGCTTGAACTCTGAACCTGGTGGGTTGGTTAAGCCAACAAGGGGAAGGAGTCAGTGGAAGTGGGGTTGGGAAAGGGGGCCTCCATGTGTCTGCACCTGCCTGACACTACCTGCCCCATACCACACCCTCCTGACACTGCCCACCCCTACCCCACCCTCCTGACACTGCCTACCCAATACCCCACCCTCCTGTTGCCAGTCGGATAGTGTTCC”, the binding signal (log2 relative supershift) was -1.17.

For “GATGGACCCTATACGCGGCGCAAAGCTCCAGTACCCTCAGGCCACACCTACTGGAAAAATATATGTCAGCCCCAGAAAATTGTGGGCAAGATGAGGCAAGTCCTGAGCAACACAGGAAACTGCCCTCCTCCTTTTCTGGCCCCGCTTCCACTGTGATGCTAAAGATCGCATCAAGGCTGGTCATCCAATCAGCAGGATGTAAGAGGGTCATGCCAGTCGGATAGTGTTCC”, the binding signal (log2 relative supershift) was -0.504.

“GATGGACCCTATACGCGGCGATAATTTGGATTTAGGGTAAGGGACAGCGTTGCTCATCTACAGGACCACAAGGGGTTCTGTGCTGCAGGGGCATAAGAAGGAGCATGTGCCATGTGGGGAATGCAGGGAAGCAGGGCAGAGGGACGTAGGAGAGGAAGATTAAGAGCCAAGGGGGAGGGGCAGGCAGGCAGGTCCTTTTCCATCTTTTCATGCCAGTCGGATAGTGTTCC”: the binding signal (log2 relative supershift) was -0.0472.

In the case of “GATGGACCCTATACGCGGCTGGGGCTCAGTGTTCTGGGAGAAGTGGGTTCTAGCTCTGCCGCTGGGCCCTGGGTGTGGGCGCCCAATCGTCCGGGAAGCGCCCACAAGCCCAGGCAAGTCCCGACAGCGGTAGCCCGAGCCCAAGCGCTGCGGGCCCGGCGTCCCAGTGACCCCAGTTCCGGGTCCGAGGCACCGCCGGCGGCATCTCCCTGCCAGTCGGATAGTGTTCC”, the binding signal (log2 relative supershift) was -0.738.

Turning to “GATGGACCCTATACGCGGCTGGGATTTGGGAATGATGTGTGTGAATTAGAGAGATTTCGAGACCTGAAATAGAGAAAAGCAAGTTAAGACATCAACTGGGGCCCAGAAACAGCACTACAGCGGGGACGACCCACCTCTCAGATGCCTGGTGAGATAAAGAAAGGTCTGGCTGACTCCACTGCCCAGTACTGTGAAGCAGCAGTGAAGACTTGCCAGTCGGATAGTGTTCC”, the binding signal (log2 relative supershift) was -0.0493.

For the sequence “GATGGACCCTATACGCGGCTGGTTCTCTCACCCCAGACACACCAGGGCTGATCCAACATATCTGGCTCAACATCACCCACAAGTCTCAACAGGGCCCTGAAAACCACCTCTGACTCCACAACCCACTGTCCCACGCCCTGGGAGGTAGGCTGTGTCTGGGCTTGCTCACGTCTGGGAACAGCAAAGTCTGGCCCAAGCCTGTTCAGCCTGTGCCAGTCGGATAGTGTTCC”, the binding signal (log2 relative supershift) was -1.18.

In the case of “GATGGACCCTATACGCGGCTTAATTCCTCCACTCTTGCAAGTGTACTTAATAGCTCACACAAAGCAAGAAGCATAACCGCAAGAACACAGAGAAGCCTGCCCTGCCAGGTTTATTGTGTGCCTGGCTGCGTGATTATTGTTTTGCATATAACCTCACAGAGGAAATCCTGTGTCAGGCACTTCCAGAGCCTCATGTAGTTTTACTGGATGTGCCAGTCGGATAGTGTTCC”, the binding signal (log2 relative supershift) was -0.445.
